# Source: the supplement of paper PMC8728848
# This is one part of the list.
# B1: CD72 ectodomain (Homo sapiens), P21854 (protein)
# chain: RYLQVSQQLQQTNRVLEVTNSSLRQQLRLKITQLGQSAEDLQGSRRELAQSQEALQVEQRAHQAAEGQLQACQADRQKTKETLQSEEQQRRALEQKLSNMENRLKPFFTCGSADTCCPSGWIMHQKSCFYISLTSKNWQESQKQCETLSSKLATFSEIYPQSHSYYFLNSLLPNGGSGNSYWTGLSSNKDWKLTDDTQRTRTYAQSSKCNKVHKTWSWWTLESESCRSSLPYICEMTAFRFPD
# Experiments:
# Test in all cases: glycan array binding signal (z-score within array); higher = stronger binding
# Details in all cases: glycan notation: IUPAC condensed, linker removed
# [1] = target: Man(a1-2)Man(a1-6)[Man(a1-3)]Man(a1-6)[Man(a1-2)Man(a1-2)Man(a1-3)]Man(b1-4)GlcNAc(b1-4)GlcNAc
# Outline: (§1)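 Columns mapping to the same glycan were averaged after glycan names were converted to IUPAC-condensed notation. The data come from 3228 arrays in the Consortium for Functional Glycomics database, limited to those with an available protein sequence. Binding is reported as a within-array Z-score averaged across arrays of one protein sequence and across linkers.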
# Man(a1-3)[Man(a1-6)]Man = target: Man(a1-3)[Man(a1-6)]Man
# Outline: as §1
# [2] = target: Man(a1-3)[Man(a1-6)]Man(a1-6)[Man(a1-2)Man(a1-3)]Man(b1-4)GlcNAc(b1-4)GlcNAc
# Outline: as §1
# [3] = target: Man(a1-3)[Man(a1-6)]Man(a1-6)[Man(a1-3)]Man
# Outline: as §1
# [4] = target: Man(a1-3)[Man(a1-6)]Man(a1-6)[Man(a1-3)]Man(b1-4)GlcNAc(b1-4)GlcNAc
# Outline: as §1
# [5] = target: Man(a1-3)[Man(a1-6)]Man(b1-4)GlcNAc(b1-4)GlcNAc
# Outline: as §1
# Man(a1-6)Man = target: Man(a1-6)Man
# Outline: as §1
# Man(b1-4)GlcNAc = target: Man(b1-4)GlcNAc
# Outline: as §1
# Neu5Ac(a2-3)Gal = target: Neu5Ac(a2-3)Gal
# Outline: as §1
# [6] = target: Neu5Ac(a2-3)Gal(b1-3)GalNAc
# Outline: as §1
# [7] = target: Neu5Ac(a2-3)Gal(b1-3)GalNAc(b1-3)Gal(a1-4)Gal(b1-4)Glc
# Outline: as §1
# [8] = target: Neu5Ac(a2-3)Gal(b1-3)GalNAc(b1-4)[Neu5Ac(a2-3)]Gal(b1-4)Glc
# Outline: as §1
# [9] = target: Neu5Ac(a2-3)Gal(b1-3)GalNAc(b1-4)[Neu5Ac(a2-8)Neu5Ac(a2-3)]Gal(b1-4)Glc
# Outline: as §1
# [10] = target: Neu5Ac(a2-3)Gal(b1-3)GalNAc6S
# Outline: as §1
# [11] = target: Neu5Ac(a2-3)Gal(b1-3)GlcNAc
# Outline: as §1
# [12] = target: Neu5Ac(a2-3)Gal(b1-3)GlcNAc(b1-3)Gal(b1-3)GlcNAc
# Outline: as §1
# [13] = target: Neu5Ac(a2-3)Gal(b1-3)GlcNAc(b1-3)Gal(b1-4)GlcNAc
# Outline: as §1
# [14] = target: Neu5Ac(a2-3)Gal(b1-3)GlcNAc(b1-3)GalNAc
# Outline: as §1
# [15] = target: Neu5Ac(a2-3)Gal(b1-3)GlcNAc6S
# Outline: as §1
# [16] = target: Neu5Ac(a2-3)Gal(b1-3)[Fuc(a1-4)]GlcNAc
# Outline: as §1
# [17] = target: Neu5Ac(a2-3)Gal(b1-3)[Fuc(a1-4)]GlcNAc(b1-3)Gal(b1-3)[Fuc(a1-4)]GlcNAc
# Outline: as §1
# [18] = target: Neu5Ac(a2-3)Gal(b1-3)[Fuc(a1-4)]GlcNAc(b1-3)Gal(b1-4)[Fuc(a1-3)]GlcNAc
# Outline: as §1
# [19] = target: Neu5Ac(a2-3)Gal(b1-3)[Neu5Ac(a2-3)Gal(b1-4)]GlcNAc
# Outline: as §1
# [20] = target: Neu5Ac(a2-3)Gal(b1-3)[Neu5Ac(a2-6)]GalNAc
# Outline: as §1
# Neu5Ac(a2-3)Gal(b1-4)Glc = target: Neu5Ac(a2-3)Gal(b1-4)Glc
# Outline: as §1
# [21] = target: Neu5Ac(a2-3)Gal(b1-4)GlcNAc
# Outline: as §1
# [22] = target: Neu5Ac(a2-3)Gal(b1-4)GlcNAc(b1-2)Man(a1-3)[GlcNAc(b1-2)Man(b1-4)GlcNAc(b1-2)Man(a1-6)]Man(b1-4)GlcNAc(b1-4)GlcNAc
# Outline: as §1
# [23] = target: Neu5Ac(a2-3)Gal(b1-4)GlcNAc(b1-2)Man(a1-3)[Neu5Ac(a2-6)Gal(b1-4)GlcNAc(b1-2)Man(a1-6)]Man(b1-4)GlcNAc(b1-4)GlcNAc
# Outline: as §1
# [24] = target: Neu5Ac(a2-3)Gal(b1-4)GlcNAc(b1-3)Gal
# Outline: as §1
# [25] = target: Neu5Ac(a2-3)Gal(b1-4)GlcNAc(b1-3)Gal(b1-3)GlcNAc
# Outline: as §1
# [26] = target: Neu5Ac(a2-3)Gal(b1-4)GlcNAc(b1-3)Gal(b1-4)GlcNAc
# Outline: as §1
# [27] = target: Neu5Ac(a2-3)Gal(b1-4)GlcNAc(b1-3)Gal(b1-4)GlcNAc(b1-3)Gal(b1-4)GlcNAc
# Outline: as §1
# [28] = target: Neu5Ac(a2-3)Gal(b1-4)GlcNAc(b1-3)Gal(b1-4)[Fuc(a1-3)]GlcNAc
# Outline: as §1
binder,measurement,setting,value
B1,glycan array binding signal (z-score),[1],0.372
same,glycan array binding signal (z-score),Man(a1-3)[Man(a1-6)]Man,-0.524
same,glycan array binding signal (z-score),[2],-2.02
same,glycan array binding signal (z-score),[3],0.405
same,glycan array binding signal (z-score),[4],0.977
same,glycan array binding signal (z-score),[5],-1.2
same,glycan array binding signal (z-score),Man(a1-6)Man,-0.096
same,glycan array binding signal (z-score),Man(b1-4)GlcNAc,2.32
same,glycan array binding signal (z-score),Neu5Ac(a2-3)Gal,-0.584
same,glycan array binding signal (z-score),[6],-0.308
same,glycan array binding signal (z-score),[7],0.115
same,glycan array binding signal (z-score),[8],-0.087
same,glycan array binding signal (z-score),[9],-0.247
same,glycan array binding signal (z-score),[10],0.246
same,glycan array binding signal (z-score),[11],0.458
same,glycan array binding signal (z-score),[12],-1.33
same,glycan array binding signal (z-score),[13],1.86
same,glycan array binding signal (z-score),[14],-0.292
same,glycan array binding signal (z-score),[15],1.16
same,glycan array binding signal (z-score),[16],-1.11
same,glycan array binding signal (z-score),[17],0.691
same,glycan array binding signal (z-score),[18],-1.5
same,glycan array binding signal (z-score),[19],0.145
same,glycan array binding signal (z-score),[20],-0.387
same,glycan array binding signal (z-score),Neu5Ac(a2-3)Gal(b1-4)Glc,0.447
same,glycan array binding signal (z-score),[21],-0.75
same,glycan array binding signal (z-score),[22],0.368
same,glycan array binding signal (z-score),[23],0.127
same,glycan array binding signal (z-score),[24],0.018
same,glycan array binding signal (z-score),[25],1.03
same,glycan array binding signal (z-score),[26],-0.934
same,glycan array binding signal (z-score),[27],-0.486
same,glycan array binding signal (z-score),[28],-0.484

# 8 entries from above in another layout:
binder	measurement	setting	value
B1	glycan array binding signal (z-score)	[14]	-0.292
same	glycan array binding signal (z-score)	[15]	1.16
same	glycan array binding signal (z-score)	[16]	-1.11
same	glycan array binding signal (z-score)	[17]	0.691
same	glycan array binding signal (z-score)	[18]	-1.5
same	glycan array binding signal (z-score)	[19]	0.145
same	glycan array binding signal (z-score)	[20]	-0.387
same	glycan array binding signal (z-score)	Neu5Ac(a2-3)Gal(b1-4)Glc	0.447
